Results on one compound are retold here after PMC8068036, “Synthesis of New Biscoumarin Derivatives, In Vitro Cholinesterase Inhibition, Molecular Modelling and Antiproliferative Effect in A549 Human Lung Carcinoma Cells” (International Journal of Molecular Sciences, 2021).

The conditions of the data set: classification from PAMPA-BBB Pe. On the procedure:
The parallel artificial membrane permeability assay (PAMPA) is used as a non-cell-based in vitro assay to predict BBB penetration and is carried out in a coated 96-well membrane filter. In our assays, the filter membrane of the donor plate was coated with PBL (Polar Brain Lipid, Avanti, Denver, CO, USA) in dodecane (4 µL of 20 mg mL^−1 PBL in dodecane), and the acceptor well was filled with 300 µL of phosphate buffered saline (PBS) (pH 7.4; VA). The tested compounds were first dissolved in DMSO, and the resulting mixture was diluted with PBS (pH 7.4) to reach the final concentration (40–100 µM) in the donor well. […] Three hundred microliters of the donor solution (VD) were added to the donor wells, and the donor filter plate was carefully placed onto the acceptor plate to ensure that the coated membrane was “in contact” with both the donor solution and the acceptor buffer. The test compound diffused from the donor well through the polar brain lipid membrane (area = 0.28 cm^2) to the acceptor well. The concentration of the tested compound in both the donor and acceptor wells was assessed after 3, 4, 5, and 6 h of incubation, respectively, in quadruplicate using a UV plate reader Synergy HT (Biotek, Winooski, VT, USA) at the maximum absorption wavelength of each compound. […]
A general note: PAMPA measures passive passage across an artificial lipid membrane.

In the case of `NS(=O)(=O)c1cc(C(=O)O)c(NCc2ccco2)cc1Cl` [Furosemide, reference compound], the “CNS Predicted Availability” value is reported as “CNS− (CNS−: low BBB permeation predicted with Pe (×10^−6 cm s^−1) < 2.0)”.
